# Assay results reported in PubChem BioAssay AID493014 (National Center for Advancing Translational Sciences (NCATS), 2011).
# Some of the results follow. These are further read-outs of the screen, such as a control signal, another cell line or another target. No call is given for them. Compounds called inactive in the main read-out are mostly missing here. Words in brackets tell the shape of the fitted curve; partial curves, single points and poor fits give uncertain potencies.
# Test: qHTS Assay to Find Inhibitors of Chronic Active B-Cell Receptor Signaling
# Settings: ABC-DLBCL IkBa-CBG/CBR reporter, luminescence ratio (green luciferase fused to IkBa over red control in TMD8 lymphoma cells), 4 h; measured here: CBR red luminescence, cell number
# In short: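 Concentration-response series (up to 46 uM) were applied to TMD8 dual-reporter cells for 4 h at 37C with doxycycline. Green/red ratio, after filter-overlap correction, defined %Activity; red signal alone was normalised to basal cells and zero luminescence.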
row,SMILES,AC50
1,CC(=O)N1CCc2c(sc(NC(=O)C3CCCN3S(=O)(=O)c3cccs3)c2C(N)=O)C1 (configuration not stated),"2.31 µM [falling, full curve, poor fit]"
2,CC(CN1CCOCC1)C(=O)O (configuration not stated),"20.6 µM [rising, partial curve, poor fit]"
3,CC1=CSC2=NC(=O)/C(=C\c3cccn3-c3ccc([N+](=O)[O-])cc3)C(=N)N12,"20.6 µM [rising, partial curve]"
4,Cn1c(N)c(S(=O)(=O)N2CCN(Cc3ccccc3)CC2)c(=O)n(C)c1=O,"35.5 µM [rising, single point]"
5,CN(C)S(=O)(=O)c1cccc(NC(=S)N2CCc3ccccc32)c1,"25.1 µM [falling, single point]"
6,Cc1nc(N2CCCCC2)sc1C(=O)c1ccc(Cl)c([N+](=O)[O-])c1,"3.55 µM [falling, full curve, poor fit]"
7,COc1ccc(NC(=O)C2CCCN(S(=O)(=O)c3ccc4c(c3)CCCN4C(C)=O)C2)cc1 (configuration not stated),"11.2 µM [falling, partial curve, poor fit]"
8,O=C(Cn1c(=O)n(-c2ccccc2)c(=O)c2oc3ccccc3c21)Nc1ccccc1,"23.1 µM [rising, partial curve, poor fit]"
9,CC(=O)O[C@H]1CSC[C@H]1NC(=O)c1ccccc1,"4.11 µM [rising, partial curve, poor fit]"
10,CCOC(=O)[C@H]1[C@H]2COc3cc(OC)ccc3[C@@H]2N2C(=O)N(c3cccc(F)c3)C(=O)[C@@]12C,"29.1 µM [rising, partial curve, poor fit]"
11,O=Nc1c(O)n(Cc2cccc(C(F)(F)F)c2)c2ccccc12,"2.51 µM [rising, partial curve, poor fit]"
12,COc1cc(C(C)=O)ccc1OCC(=O)Nc1ccccc1N1CCCC1,"2 µM [falling, full curve, poor fit]"
13,CCCCN(C)CCCNC(=O)c1cc(Nc2ccc(OC)c(OC)c2)nc2ccccc12,"12.6 µM [falling, single point]"
14,Cc1cc(C(=O)COC(=O)c2ccc(O)cc2O)c(C)n1-c1ccccc1,"16.4 µM [falling, single point]"
15,Cc1ccc(Nc2c([N+](=O)[O-])ccc3nonc23)cc1C,"25.1 µM [rising, single point]"
16,COC(=O)[C@@H]1C[C@]2(OC(=O)c3ccccc3)C=CC(=O)C[C@@H]2N1C(=O)OCc1ccccc1,"11.6 µM [falling, single point]"

# An excerpt from above in order of heavy-atom count, ascending:
row,SMILES,AC50
9,CC(=O)O[C@H]1CSC[C@H]1NC(=O)c1ccccc1,"4.11 µM [rising, partial curve, poor fit]"
15,Cc1ccc(Nc2c([N+](=O)[O-])ccc3nonc23)cc1C,"25.1 µM [rising, single point]"
11,O=Nc1c(O)n(Cc2cccc(C(F)(F)F)c2)c2ccccc12,"2.51 µM [rising, partial curve, poor fit]"

# (cont.)

row,SMILES,AC50
1,O=C(CSc1nc2ccccc2c(=O)[nH]1)c1cccs1,"10 µM [falling, partial curve]"
2,CN(C)C(=O)c1cc(C(=O)c2ccc(C(F)(F)F)cc2)c[nH]1,"14.1 µM [rising, partial curve, poor fit]"
3,CCCc1ccc(-c2cc(NC(=O)CSc3n[nH]c(N)n3)n(-c3ccccc3)n2)cc1,"0.82 µM [rising, partial curve]"
4,CCOC(=O)c1oc2ccc(S(=O)(=O)Nc3ccc4c(c3)n(C)c(=O)n4C)cc2c1C,"16.4 µM [rising, single point]"
5,CCOc1ncccc1C(=O)OCC(=O)Nc1nnc(-c2ccccc2)o1,"20.6 µM [falling, partial curve]"
6,CCN1CCN(C(=O)C2CCN(c3nnc(-n4c(C)ccc4C)s3)CC2)CC1,"22.4 µM [falling, single point]"
7,CCOc1ccc(/C=C/C(=O)c2ccccc2)cc1,"35.5 µM [falling, single point]"
8,O=C1/C(=C\c2ccc(O)cc2)SC(=S)N1/N=C/c1ccc(O)cc1,"2.82 µM [falling, full curve, poor fit]"
9,COc1ccc(CNC(=O)CN(c2ccc(OC)cc2)S(=O)(=O)c2c(C)nn(C)c2C)cc1,"20.6 µM [rising, partial curve, poor fit]"
10,CCc1ccc(Nc2nnc(SCC(=O)Nc3sccc3C(N)=O)s2)cc1,"29.1 µM [falling, single point]"
11,CN1CCSc2ccc(C(=O)NCc3ccccc3F)cc21,"22.4 µM [falling, partial curve, poor fit]"
12,CN(CC(=O)N1CCc2ccccc21)S(=O)(=O)c1ccc(Cl)cc1,"5.8 µM [rising, single point]"
13,CCCCOc1ccc(-c2nnc(N)s2)cc1,"13 µM [rising, partial curve]"
14,Cc1cccc(C)c1NC(=S)NC(C)(C)CO,"35.5 µM [rising, single point]"
15,O=C(N/N=C/c1ccco1)c1cc(-c2ccccc2)n[nH]1,"10.3 µM [falling, partial curve, poor fit]"
16,O=C(c1oc2ccccc2c1CSCc1ccccc1)N1CCN(c2ncccn2)CC1,"15.8 µM [falling, partial curve, poor fit]"
